# Data from the supplement of paper PMC4604168 (melanoma cell lines).
# This is one part of the list. Many values rest on one well or one pass, so single values are uncertain.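 Cells were imaged in 1,536-well plates, and nuclei stained with an antibody against cleaved PARP were counted against all DNA-stained nuclei to give the apoptosis fraction. Screening doses were chosen to leave most cells alive, and resting and induced cleaved-PARP levels differ strongly between cell lines.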
# Legend:
# Test in all cases: cleaved PARP positive nuclei fraction relative to DMSO control; melanoma cells; higher = more apoptosis
# Settings in all cases: library dose: low library concentration; 72 h
# MeWo = test system: MeWo
# RPMI7951 = test system: RPMI7951
# RVH-421 = test system: RVH-421
# SkMel28 = test system: SkMel28
# SkMel2 = test system: SkMel2
# SkMel30 = test system: SkMel30
# UACC62 = test system: UACC62
# SkMel5 = test system: SkMel5
# UACC257 = test system: UACC257
Structure (SMILES),cleaved PARP positive nuclei fraction (MeWo),cleaved PARP positive nuclei fraction (RPMI7951),cleaved PARP positive nuclei fraction (RVH-421),cleaved PARP positive nuclei fraction (SkMel28),cleaved PARP positive nuclei fraction (SkMel2),cleaved PARP positive nuclei fraction (SkMel30),cleaved PARP positive nuclei fraction (UACC62),cleaved PARP positive nuclei fraction (SkMel5),cleaved PARP positive nuclei fraction (UACC257)
"NC(=O)c1ccc(N(C(N)=O)c2c(F)cccc2F)nc1-c1ccc(F)cc1F + COCC[n+]1c2c(n(Cc3cnccn3)c1C)C(=O)c1ccccc1C2=O [YM155] (first compound 0.4 µM, partner dose 0.0004 µM)",387%,89.9%,127%,230%,190%,48.9%,87.8%,,
"CCCCCCCCc1ccc(CCC(N)(CO)CO)cc1 [fingolimod] + CN(c1ncccc1CNc1nc(Nc2ccc3c(c2)CC(=O)N3)ncc1C(F)(F)F)S(C)(=O)=O [PF562271] (first compound 2 µM, partner dose 0.08 µM)",167%,186%,54.1%,109%,,25.3%,145%,,
"CCN(CC)CCNC(=O)c1c(C)[nH]c(/C=C2\C(=O)Nc3ccc(F)cc32)c1C [sunitinib] + O=C(Nc1ccccc1)c1cc([N+](=O)[O-])ccc1Cl [GW9662] (first compound 0.4 µM, partner dose 2 µM)",66.7%,131%,87.8%,188%,,64.9%,194%,127%,137%
"CS(=O)(=O)c1ccc(C(=O)Nc2ccc(Cl)c(-c3ccccn3)c2)c(Cl)c1 [vismodegib] + CCCS(=O)(=O)Nc1ccc(F)c(C(=O)c2c[nH]c3ncc(Cl)cc23)c1F [PLX4720] (first compound 1 µM, partner dose 0.08 µM)",302%,82.1%,135%,74.5%,76.7%,86.7%,222%,,
"CC(=O)O[C@@]12CO[C@@H]1C[C@H](O)[C@@]1(C)C(=O)[C@H](O)C3=C(C)[C@@H](OC(=O)[C@H](O)[C@@H](NC(=O)OC(C)(C)C)c4ccccc4)C[C@@](O)([C@@H](OC(=O)c4ccccc4)[C@H]21)C3(C)C [Docetaxel] + O=C(O)c1ccc2c(c1)nc(Nc1cccc(Cl)c1)c1ccncc12 [CX4945] (first compound 0.0001 µM, partner dose 0.4 µM)",974%,181%,190%,335%,304%,726%,1240%,,
"CN(c1ncccc1CNc1nc(Nc2ccc3c(c2)CC(=O)N3)ncc1C(F)(F)F)S(C)(=O)=O + COCC[n+]1c2c(n(Cc3cnccn3)c1C)C(=O)c1ccccc1C2=O [YM155] (first compound 0.08 µM, partner dose 0.0004 µM)",53.2%,117%,177%,51.4%,,153%,169%,,
"Cn1sc(=O)n(Cc2ccccc2)c1=O + Nc1ccn([C@@H]2O[C@H](CO)[C@@H](O)C2(F)F)c(=O)n1 [gemcitabine] (first compound 0.4 µM, partner dose 0.0004 µM)",56.6%,142%,155%,71%,119%,75.6%,45.4%,,
"Cn1sc(=O)n(Cc2ccccc2)c1=O + C=CCNC1=C2C[C@@H](C)C[C@H](OC)[C@H](O)[C@@H](C)/C=C(\C)[C@H](OC(N)=O)[C@@H](OC)/C=C\C=C(/C)C(=O)NC(=CC1=O)C2=O [Tanespimycin] (first compound 0.4 µM, partner dose 0.002 µM)",136%,98%,46.7%,97.1%,,60.7%,36.5%,,
"Cn1sc(=O)n(Cc2ccccc2)c1=O + NCC(=O)Nc1ccc(-n2nc(C(F)(F)F)cc2-c2ccc3c(ccc4ccccc43)c2)cc1 [OSU03012] (first compound 0.4 µM, partner dose 1 µM)",54.3%,94.5%,71.5%,99.4%,,124%,336%,40.1%,175%
"CC1(C)CCC(c2ccc(Cl)cc2)=C(CN2CCN(c3ccc(C(=O)NS(=O)(=O)c4ccc(N[C@H](CCN5CCOCC5)CSc5ccccc5)c(S(=O)(=O)C(F)(F)F)c4)cc3)CC2)C1 + Cn1nnc2c(C(N)=O)ncn2c1=O [temozolomide] (first compound 0.4 µM, partner dose 2 µM)",386%,288%,267%,82.9%,,261%,183%,,
"CC1(C)CCC(c2ccc(Cl)cc2)=C(CN2CCN(c3ccc(C(=O)NS(=O)(=O)c4ccc(N[C@H](CCN5CCOCC5)CSc5ccccc5)c(S(=O)(=O)C(F)(F)F)c4)cc3)CC2)C1 + COc1ccc2c(c1)CCC1C2CCC2(C)C(NCCCCCCN3C(=O)C=CC3=O)CCC12 [U73122] (first compound 0.4 µM, partner dose 0.4 µM)",117%,336%,183%,167%,,61.8%,209%,209%,205%
"Cn1cnc2c(F)c(Nc3ccc(Br)cc3Cl)c(C(=O)NOCCO)cc21 [selumetinib] + C=CCNC1=C2C[C@@H](C)C[C@H](OC)[C@H](O)[C@@H](C)/C=C(\C)[C@H](OC(N)=O)[C@@H](OC)/C=C\C=C(/C)C(=O)NC(=CC1=O)C2=O [Tanespimycin] (first compound 0.015 µM, partner dose 0.002 µM)",121%,87.6%,151%,143%,,70.5%,170%,,
"Cn1cnc2c(F)c(Nc3ccc(Br)cc3Cl)c(C(=O)NOCCO)cc21 [selumetinib] + C=C(c1ccc(C(=O)O)cc1)c1cc2c(cc1C)C(C)(C)CCC2(C)C [Bexarotene] (first compound 0.015 µM, partner dose 2 µM)",126%,47.3%,272%,53.6%,,39.6%,328%,,
"CC1(C)CCC(c2ccc(Cl)cc2)=C(CN2CCN(c3ccc(C(=O)NS(=O)(=O)c4ccc(N[C@H](CCN5CCOCC5)CSc5ccccc5)c(S(=O)(=O)C(F)(F)F)c4)cc3)CC2)C1 + Cn1cnc2c(F)c(Nc3ccc(Br)cc3Cl)c(C(=O)NOCCO)cc21 [selumetinib] (first compound 0.4 µM, partner dose 0.015 µM)",741%,149%,142%,60%,,238%,109%,,
"CCN(CC)CCNC(=O)c1c(C)[nH]c(/C=C2\C(=O)Nc3ccc(F)cc32)c1C [sunitinib] + CC1(C)NC(=O)N(c2ccc([N+](=O)[O-])c(C(F)(F)F)c2)C1=O [nilutamide] (first compound 0.4 µM, partner dose 1 µM)",442%,100%,58.1%,38%,,172%,189%,77.9%,137%
"CCN(CC)CCNC(=O)c1c(C)[nH]c(/C=C2\C(=O)Nc3ccc(F)cc32)c1C [sunitinib] + CS(=O)(=O)CCNCc1ccc(-c2ccc3ncnc(Nc4ccc(OCc5cccc(F)c5)c(Cl)c4)c3c2)o1 [lapatinib] (first compound 0.4 µM, partner dose 0.8 µM)",168%,209%,30.1%,44.3%,,107%,181%,,
"C[C@@H](N)c1ccc(C(=O)Nc2ccnc3[nH]ccc23)cc1 + CN(c1ncccc1CNc1nc(Nc2ccc3c(c2)CC(=O)N3)ncc1C(F)(F)F)S(C)(=O)=O [PF562271] (first compound 0.4 µM, partner dose 0.08 µM)",284%,430%,147%,107%,191%,59.1%,36%,,
"CC1(C)CCC(c2ccc(Cl)cc2)=C(CN2CCN(c3ccc(C(=O)NS(=O)(=O)c4ccc(N[C@H](CCN5CCOCC5)CSc5ccccc5)c(S(=O)(=O)C(F)(F)F)c4)cc3)CC2)C1 + Nc1cccc2c1CN(C1CCC(=O)NC1=O)C2=O [lenalidomide] (first compound 0.4 µM, partner dose 1 µM)",171%,95.7%,201%,38.9%,,93.9%,211%,,
"C[C@@H](N)c1ccc(C(=O)Nc2ccnc3[nH]ccc23)cc1 + C[C@@H](Oc1cc(-c2cnn(C3CCNCC3)c2)cnc1N)c1c(Cl)ccc(F)c1Cl [Crizotinib] (first compound 0.4 µM, partner dose 0.2 µM)",148%,60.7%,17%,86.1%,88.2%,92.4%,101%,,
"C[C@]1(O)C[C@@H](c2nc(-c3ccc4ccc(-c5ccccc5)nc4c3)c3c(N)nccn32)C1 + CC(=O)c1c(C)c2cnc(Nc3ccc(N4CCNCC4)cn3)nc2n(C2CCCC2)c1=O [palbociclib] (first compound 0.4 µM, partner dose 0.04 µM)",48.2%,150%,56.3%,251%,,63.6%,158%,,
"Cn1sc(=O)n(Cc2ccccc2)c1=O + O=C(O)[C@@H]1[O][Sb](=[O])([O][Sb]2(=[O])[O][C@H]([C@H](O)CO)[C@H](O)[C@H](C(=O)O)[O]2)[O][C@H]([C@H](O)CO)[C@@H]1O [stibogluconate] (first compound 0.4 µM, partner dose 2 µM)",68.6%,164%,113%,22.5%,,74%,100%,,
"NC(=O)c1ccc(N(C(N)=O)c2c(F)cccc2F)nc1-c1ccc(F)cc1F + CS(=O)(=O)c1ccc(C(=O)Nc2ccc(Cl)c(-c3ccccn3)c2)c(Cl)c1 [vismodegib] (first compound 0.4 µM, partner dose 1 µM)",49.5%,125%,77.1%,75.6%,113%,74.3%,68.8%,,

# Looked up one by one from above:
Structure (SMILES),cleaved PARP positive nuclei fraction (MeWo),cleaved PARP positive nuclei fraction (RPMI7951),cleaved PARP positive nuclei fraction (RVH-421),cleaved PARP positive nuclei fraction (SkMel28),cleaved PARP positive nuclei fraction (SkMel2),cleaved PARP positive nuclei fraction (SkMel30),cleaved PARP positive nuclei fraction (UACC62),cleaved PARP positive nuclei fraction (SkMel5),cleaved PARP positive nuclei fraction (UACC257)
"CCN(CC)CCNC(=O)c1c(C)[nH]c(/C=C2\C(=O)Nc3ccc(F)cc32)c1C [sunitinib] + CC1(C)NC(=O)N(c2ccc([N+](=O)[O-])c(C(F)(F)F)c2)C1=O [nilutamide] (first compound 0.4 µM, partner dose 1 µM)",442%,100%,58.1%,38%,,172%,189%,77.9%,137%
"Cn1sc(=O)n(Cc2ccccc2)c1=O + NCC(=O)Nc1ccc(-n2nc(C(F)(F)F)cc2-c2ccc3c(ccc4ccccc43)c2)cc1 [OSU03012] (first compound 0.4 µM, partner dose 1 µM)",54.3%,94.5%,71.5%,99.4%,,124%,336%,40.1%,175%
